The other results are listed elsewhere or left out.
biological target: T1, OsSMF1 (Oryza sativa, UniProt Q6ZLB0 1-436); assay: protein-binding microarray (RPBM); PBS, 2% BSA, 51.3 ng/ul salmon testes DNA, 50 uM zinc acetate, 200 nM TF, 25 C, 1 h; high values mean tight binding; settings: protein: recombinant; tags: N-terminal polyhistidine and DsRed monomer fusion (pET32a); chain copies: 2; label: CyDye5-dUTP incorporated in the synthesized complementary strand; 3' TTTTT single-stranded linker to array surface; dsDNA, one strand shown
T1 sequence: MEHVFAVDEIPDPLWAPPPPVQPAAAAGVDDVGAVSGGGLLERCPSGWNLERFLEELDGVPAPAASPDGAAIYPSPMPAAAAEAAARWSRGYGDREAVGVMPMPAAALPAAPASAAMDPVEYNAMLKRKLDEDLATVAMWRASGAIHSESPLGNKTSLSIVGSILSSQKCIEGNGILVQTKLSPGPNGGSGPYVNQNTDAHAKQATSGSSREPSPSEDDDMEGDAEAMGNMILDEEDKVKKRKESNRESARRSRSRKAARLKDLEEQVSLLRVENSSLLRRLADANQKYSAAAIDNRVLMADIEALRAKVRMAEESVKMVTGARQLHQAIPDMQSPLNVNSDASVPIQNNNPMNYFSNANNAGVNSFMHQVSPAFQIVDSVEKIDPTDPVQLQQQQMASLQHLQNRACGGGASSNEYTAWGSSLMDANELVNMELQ
Method in brief: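 A custom Agilent array was converted to double-stranded form by primer extension with Cy5-dUTP and blocked with 2% BSA. Protein at 200 nM in PBS with 2% BSA, salmon testes DNA and 50 µM zinc acetate was applied for 1 h at 25 °C, followed by washing. The proteins were polyhistidine–DsRed N-terminal fusions of transcription factors, expressed in E. coli BL21-CodonPlus and Ni–NTA-purified. The binding signal is per-feature fluorescence intensity (arbitrary units) from an Axon 4000B scanner.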

| Sequence | binding signal |
| --- | --- |
| CTGATCAGGTGCGGCGCCGCCGCCGTCCCGGACGACGAGCCGGAGTCACCTAGTGCAG | 32800 fluorescence intensity (a.u.) |
| TTTCAGAGTGTAATTCTTTGATTGGCAGTATCGTCTCAGACGGAGTCACCTAGTGCAG | 4530 fluorescence intensity (a.u.) |
| ACCACTGCACGGCCGCTCACCCACGTCAACGTTTAACCTGCGGAGTCACCTAGTGCAG | 10200 fluorescence intensity (a.u.) |
| CAAGATGGCATTGCCACGAATACGTGGCCCATAGAGAATTCGGAGTCACCTAGTGCAG | 4160 fluorescence intensity (a.u.) |
| ACTAACTTAGCTAGCGTGACAACTGGCACGCTCATTTTCTCGGAGTCACCTAGTGCAG | 3540 fluorescence intensity (a.u.) |
| CTGACTTTTAGCTGCACCAGCATTCATCTTACTGAGCACGCGGAGTCACCTAGTGCAG | 22600 fluorescence intensity (a.u.) |
| ATGGTAATGTTGAGTTGAAAGGGATTATAAGAAACCATGACGGAGTCACCTAGTGCAG | 19100 fluorescence intensity (a.u.) |
| GCGGAGTAGCATCGCGATGACGCTGCCGCCGCCGTGGGGCCGGAGTCACCTAGTGCAG | 4830 fluorescence intensity (a.u.) |
| AGAGAGAGAGATTGAGATGCCAAATCATTTCCATGCGGATCGGAGTCACCTAGTGCAG | 3370 fluorescence intensity (a.u.) |
| CCTCACCGTCCACTCCCAACCGCAAAACCCCACGCGTCAGCGGAGTCACCTAGTGCAG | 5470 fluorescence intensity (a.u.) |
| CTCGATCTCGTCTATAAATACCGGGGACGTGCATCCTTCCCGGAGTCACCTAGTGCAG | 3280 fluorescence intensity (a.u.) |
| CAAAGGGAATATATCAAAGTCTCTTAATAGTTTGGATGACCGGAGTCACCTAGTGCAG | 16300 fluorescence intensity (a.u.) |
| CTCGATTTCTCGAACCTTCTTATCTGACGTTGACGCCCCTCGGAGTCACCTAGTGCAG | 5210 fluorescence intensity (a.u.) |
| AGAACACTGTGTCCCTTACGTGGCGACCTAATTTACCGTCCGGAGTCACCTAGTGCAG | 20200 fluorescence intensity (a.u.) |
| TGGTTGGAGGATGACGCCGACTTCCCTGAAGCTAGGCGAACGGAGTCACCTAGTGCAG | 3980 fluorescence intensity (a.u.) |
| TCTTGCACCTTGCACGATGAAGTCGTCACATCACTTACCGCGGAGTCACCTAGTGCAG | 3540 fluorescence intensity (a.u.) |
| TGGTCCGGCCGCGCGCCGCTGCCGCCGCCGCCGCAGGGCGCGGAGTCACCTAGTGCAG | 14400 fluorescence intensity (a.u.) |
| TGTTTGCACTTGGTCACTTCCCCTTGCTCACTTCCTTGGGCGGAGTCACCTAGTGCAG | 3150 fluorescence intensity (a.u.) |
| GAAATTTTCAGGGTGTTACATAGATCAACTGAATTCCTTACGGAGTCACCTAGTGCAG | 3550 fluorescence intensity (a.u.) |
| CAGCGGGCGGAGGCCATGGCAGCTCGTGGCGTTGGGCGGACGGAGTCACCTAGTGCAG | 3250 fluorescence intensity (a.u.) |
| GCTCACGTTGACCTGCCTTAGGCCACCGTTCTCACCGGCTCGGAGTCACCTAGTGCAG | 3550 fluorescence intensity (a.u.) |

Nothing new here: an excerpt of the list.

| Sequence | binding signal |
| --- | --- |
| GCGGAGTAGCATCGCGATGACGCTGCCGCCGCCGTGGGGCCGGAGTCACCTAGTGCAG | 4830 fluorescence intensity (a.u.) |
| AGAGAGAGAGATTGAGATGCCAAATCATTTCCATGCGGATCGGAGTCACCTAGTGCAG | 3370 fluorescence intensity (a.u.) |

Next results:

| Sequence | binding signal |
| --- | --- |
| TCTTGTGTACGTTGTGTGTTGTCATTGTGTGTCTGTCTTACGGAGTCACCTAGTGCAG | 5360 fluorescence intensity (a.u.) |
| CCACTACTGCCCTTGCTTGACTCGTTTGGTTGGTTGCCTACGGAGTCACCTAGTGCAG | 4900 fluorescence intensity (a.u.) |
| CTTTTCTCCACGTCGCTGCAGCCGTGTCCTCATCGACCTTCGGAGTCACCTAGTGCAG | 5860 ± 632 fluorescence intensity (a.u.) |
| CCCCGGCTTTGACTCACAGACTCCACGTCTCCACCCCGAACGGAGTCACCTAGTGCAG | 8050 fluorescence intensity (a.u.) |
| ATTAACGCCACGCCATGCCACATTCATAATAAATTCGTTTCGGAGTCACCTAGTGCAG | 4620 fluorescence intensity (a.u.) |
| AAACGCTTACTACCGAACGTCCGATACGTGGAGAAATCCTCGGAGTCACCTAGTGCAG | 3980 fluorescence intensity (a.u.) |
| ACGGCCAGTGACCCAGTTGTACATATACCCAGCGCACACTCGGAGTCACCTAGTGCAG | 3190 fluorescence intensity (a.u.) |
| CCCTCGCTAGCCAAATTTGGCCAGCCTACTCCACGTGCCACGGAGTCACCTAGTGCAG | 6070 fluorescence intensity (a.u.) |
| CCCAACTATACGTGACACATGTTCCGGTGTTCTCACAAATCGGAGTCACCTAGTGCAG | 3250 fluorescence intensity (a.u.) |
| ATGATTCCACTCACGTGTTTGGTTTGTAGGATGTGACAATCGGAGTCACCTAGTGCAG | 3220 fluorescence intensity (a.u.) |
| CGAGGATGCCGAGGTCGACGTCAACATCGTCCGCAGCCACCGGAGTCACCTAGTGCAG | 4340 fluorescence intensity (a.u.) |
| CTGAATGCCGTGCCACCACAGATGGGAGGCTGAGTCGGCGCGGAGTCACCTAGTGCAG | 4670 fluorescence intensity (a.u.) |
| AGTTCACCCATTGCAAAGCACATGACTCATACTAGATATCCGGAGTCACCTAGTGCAG | 9880 fluorescence intensity (a.u.) |
| TGATATACGGTTCAGATAGAATGAAATTCACCGTGGGAATCGGAGTCACCTAGTGCAG | 3190 fluorescence intensity (a.u.) |
| CGCGCACGCCACGCCACGCCACGCCACGCCGCGCCACCTGCGGAGTCACCTAGTGCAG | 5920 fluorescence intensity (a.u.) |
| CCGCCTAGTCTCATTGGAAACCACCTCATTAGTCATCCCACGGAGTCACCTAGTGCAG | 3320 fluorescence intensity (a.u.) |
| AACATAACTGCCTAGTCAGGATGTAAAATATTTCCAAGGTCGGAGTCACCTAGTGCAG | 3860 fluorescence intensity (a.u.) |
| GTTAAGAAAAGAAAACCACCGACGAGTCCATTCGTTTTCACGGAGTCACCTAGTGCAG | 3280 fluorescence intensity (a.u.) |
| TTGACAAGAGTAGAACAACAACAACATCATCATCATCTATCGGAGTCACCTAGTGCAG | 3290 fluorescence intensity (a.u.) |
| AACCGGTCTTTCCGCCACCTCGGTACGTGTTCGACATGTTCGGAGTCACCTAGTGCAG | 4170 fluorescence intensity (a.u.) |
| TGTTGTGCTGGTTGGTTCCAGATCTAACAGTGACAGTGCGCGGAGTCACCTAGTGCAG | 4380 fluorescence intensity (a.u.) |

— paper PMC7819943, “Rice protein-binding microarrays: a tool to detect cis-acting elements near promoter regions in rice”
